Publication PMC8322311
Results are given in words; binding and its absence hold for the method and conditions named. For some of these results: Binding calls can cover weak binding; strength is not graded here. For some of these results: In cells and extracts the contact can be indirect. For some of these results: Sequences can lack the tags named with a protein.

Amino acid sequences for entries named in this document (tags omitted). A change or cut given only in a name is not applied to a line headed by its entry. Residues count along the entry.
UniProt Q9H5Y7, residues 27-841: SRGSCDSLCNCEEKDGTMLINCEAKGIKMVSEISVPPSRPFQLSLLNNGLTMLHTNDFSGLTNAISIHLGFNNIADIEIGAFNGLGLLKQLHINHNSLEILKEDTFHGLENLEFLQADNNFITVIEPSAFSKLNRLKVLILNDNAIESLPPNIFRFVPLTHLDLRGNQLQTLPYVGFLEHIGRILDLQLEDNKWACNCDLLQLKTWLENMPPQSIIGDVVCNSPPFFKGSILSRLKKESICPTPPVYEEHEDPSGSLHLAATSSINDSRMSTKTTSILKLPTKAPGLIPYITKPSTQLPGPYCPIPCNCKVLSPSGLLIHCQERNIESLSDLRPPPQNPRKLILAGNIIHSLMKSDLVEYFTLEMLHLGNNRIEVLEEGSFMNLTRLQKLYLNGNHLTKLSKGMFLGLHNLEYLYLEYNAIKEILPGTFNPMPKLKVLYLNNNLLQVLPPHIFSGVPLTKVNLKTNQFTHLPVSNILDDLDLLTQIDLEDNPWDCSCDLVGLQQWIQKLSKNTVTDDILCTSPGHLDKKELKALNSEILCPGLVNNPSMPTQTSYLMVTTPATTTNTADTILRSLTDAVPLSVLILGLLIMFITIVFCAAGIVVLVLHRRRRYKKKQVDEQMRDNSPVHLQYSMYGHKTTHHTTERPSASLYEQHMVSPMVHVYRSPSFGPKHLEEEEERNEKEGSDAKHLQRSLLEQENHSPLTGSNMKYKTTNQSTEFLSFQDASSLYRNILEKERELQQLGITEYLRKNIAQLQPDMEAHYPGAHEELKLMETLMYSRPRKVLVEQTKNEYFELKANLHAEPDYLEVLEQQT
UniProt Q15465: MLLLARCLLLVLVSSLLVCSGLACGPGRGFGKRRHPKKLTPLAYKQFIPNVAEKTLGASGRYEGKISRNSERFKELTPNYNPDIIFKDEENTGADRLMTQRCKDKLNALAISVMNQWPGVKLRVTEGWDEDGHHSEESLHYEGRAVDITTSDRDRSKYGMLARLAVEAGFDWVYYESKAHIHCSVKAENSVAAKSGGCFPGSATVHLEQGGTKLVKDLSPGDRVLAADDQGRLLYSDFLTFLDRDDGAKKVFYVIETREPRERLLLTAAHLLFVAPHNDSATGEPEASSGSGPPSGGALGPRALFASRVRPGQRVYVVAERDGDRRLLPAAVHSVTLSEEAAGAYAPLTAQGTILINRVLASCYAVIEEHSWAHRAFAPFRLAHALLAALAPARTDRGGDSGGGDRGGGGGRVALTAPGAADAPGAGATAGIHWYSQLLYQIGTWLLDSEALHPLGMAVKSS

Tests used:
[1] = target: T1, recombinant human SLITRK5 extracellular domain fragment (human) (UniProt O94991); assay: ELISA; hSLITRK5-ECD (2 µg/ml) coated on 96-well plates, 2 h room temperature; SHH-His added 2 h room temperature; detected with anti-His HRP; both purified
T1 sequence: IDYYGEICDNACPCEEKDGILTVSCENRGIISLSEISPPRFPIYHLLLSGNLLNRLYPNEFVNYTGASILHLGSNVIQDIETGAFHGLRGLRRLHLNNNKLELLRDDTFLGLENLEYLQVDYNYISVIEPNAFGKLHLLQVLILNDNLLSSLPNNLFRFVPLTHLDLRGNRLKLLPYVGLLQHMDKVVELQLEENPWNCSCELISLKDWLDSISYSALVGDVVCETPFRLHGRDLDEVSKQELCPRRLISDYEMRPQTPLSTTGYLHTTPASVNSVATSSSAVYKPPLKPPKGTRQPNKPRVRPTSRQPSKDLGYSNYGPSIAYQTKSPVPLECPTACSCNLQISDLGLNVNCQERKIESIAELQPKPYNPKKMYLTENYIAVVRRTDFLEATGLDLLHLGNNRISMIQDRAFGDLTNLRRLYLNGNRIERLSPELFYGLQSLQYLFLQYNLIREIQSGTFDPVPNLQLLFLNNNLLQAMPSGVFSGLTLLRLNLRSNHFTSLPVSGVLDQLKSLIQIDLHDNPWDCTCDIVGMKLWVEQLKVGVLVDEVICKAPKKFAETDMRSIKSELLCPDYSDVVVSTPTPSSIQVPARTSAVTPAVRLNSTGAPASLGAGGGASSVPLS

SLITRK1 = target: T2, SLITRK1 (UniProt Q96PX8); assay: co-IP; immunoprecipitation of SLITRK family members with SHH (Supplementary Fig. 3b, c); cell line not given
T2 sequence: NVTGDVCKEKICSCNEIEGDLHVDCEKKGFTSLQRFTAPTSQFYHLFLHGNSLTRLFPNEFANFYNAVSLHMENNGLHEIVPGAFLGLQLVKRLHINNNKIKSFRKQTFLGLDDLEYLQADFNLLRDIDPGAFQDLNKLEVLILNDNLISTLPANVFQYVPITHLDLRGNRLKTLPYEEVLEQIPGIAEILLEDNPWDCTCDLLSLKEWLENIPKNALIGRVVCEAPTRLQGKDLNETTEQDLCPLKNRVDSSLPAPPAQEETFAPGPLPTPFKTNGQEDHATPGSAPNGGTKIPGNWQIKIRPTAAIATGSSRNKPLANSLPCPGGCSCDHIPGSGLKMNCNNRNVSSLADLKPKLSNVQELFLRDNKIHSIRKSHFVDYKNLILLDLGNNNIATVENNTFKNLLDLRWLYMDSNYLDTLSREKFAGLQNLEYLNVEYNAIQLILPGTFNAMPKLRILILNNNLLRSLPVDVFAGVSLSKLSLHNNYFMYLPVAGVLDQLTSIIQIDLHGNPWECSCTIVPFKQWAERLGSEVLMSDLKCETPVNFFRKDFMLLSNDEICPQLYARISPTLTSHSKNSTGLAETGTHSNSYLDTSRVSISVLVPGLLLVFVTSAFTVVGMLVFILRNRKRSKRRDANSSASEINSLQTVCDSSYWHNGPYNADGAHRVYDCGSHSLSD

SLITRK6 = SLITRK6 (UniProt Q9H5Y7); assay: as above
Flag-SLITRK5 = target: T3, Flag-SLITRK5 (UniProt O94991); assay: co-IP; HEK293T cells transfected with the indicated plasmids; lysis in RIPA or TNT buffer; Flag or HA agarose; immunoblot
T3 sequence: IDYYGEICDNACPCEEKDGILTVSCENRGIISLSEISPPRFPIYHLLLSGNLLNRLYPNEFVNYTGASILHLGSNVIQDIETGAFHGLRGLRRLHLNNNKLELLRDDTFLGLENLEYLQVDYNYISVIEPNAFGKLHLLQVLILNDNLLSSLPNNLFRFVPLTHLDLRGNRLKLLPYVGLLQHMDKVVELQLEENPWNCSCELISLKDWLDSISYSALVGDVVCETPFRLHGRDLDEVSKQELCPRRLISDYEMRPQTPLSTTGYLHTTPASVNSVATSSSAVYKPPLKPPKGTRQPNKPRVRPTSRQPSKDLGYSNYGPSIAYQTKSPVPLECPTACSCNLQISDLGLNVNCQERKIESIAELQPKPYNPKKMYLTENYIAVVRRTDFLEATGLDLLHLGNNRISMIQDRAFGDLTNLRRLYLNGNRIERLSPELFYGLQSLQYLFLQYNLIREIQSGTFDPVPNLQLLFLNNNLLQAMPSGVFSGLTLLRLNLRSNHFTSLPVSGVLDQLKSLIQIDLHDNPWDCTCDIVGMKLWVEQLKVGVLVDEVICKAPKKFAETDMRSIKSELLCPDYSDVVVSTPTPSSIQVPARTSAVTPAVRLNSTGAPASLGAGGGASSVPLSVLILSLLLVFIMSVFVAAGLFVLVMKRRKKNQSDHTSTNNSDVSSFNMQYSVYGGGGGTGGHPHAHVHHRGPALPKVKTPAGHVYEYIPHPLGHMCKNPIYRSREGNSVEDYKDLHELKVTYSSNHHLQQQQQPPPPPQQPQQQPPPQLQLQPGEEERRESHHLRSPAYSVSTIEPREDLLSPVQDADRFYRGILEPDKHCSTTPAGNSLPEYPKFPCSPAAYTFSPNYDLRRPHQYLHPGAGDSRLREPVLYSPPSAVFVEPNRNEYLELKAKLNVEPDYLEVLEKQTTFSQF

Substance	binding [1]	binding (SLITRK1)	binding (SLITRK6)	binding (Flag-SLITRK5)
SHH-His (from UniProt Q15465) (ligand)	binds	–	–	–
SHH (in the co-immunoprecipitations) (from UniProt Q15465) (ligand)	–	no binding	no binding	binds
